# From patent US8163870B2, “Channel forming peptides” (Kansas State University Research Foundation, priority 2000, dated 2012)
# Assay: Tryptophan fluorescence and KI quenching in buffer and liposomes
# Format: physicochemical
sequence,measurement,setting,value
KKKKAARVGLGITTVWVTTIGLGVRAA (KKKKAARVGLGITTVWVTTIGLGVRAA; Modified Homo sapiens) [SEQ ID No. 9],tryptophan fluorescence intensity,1 mM liposomes,approximately 249.0
same,tryptophan fluorescence lambda max,1 mM liposomes,327.8 nm
same,tryptophan fluorescence intensity,buffer,148.0 arbitrary units
same,tryptophan fluorescence intensity,"buffer, 50 mM KI",26.7 arbitrary units
same,tryptophan fluorescence lambda max,"buffer, 50 mM KI",357.0 nm
same,tryptophan fluorescence lambda max,"buffer, peptide 6.25 micromolar",348.4 nm
same,tryptophan fluorescence intensity,"liposomes, KI",193.0
same,tryptophan fluorescence lambda max,"liposomes, KI",327.4 nm

# Some values come without a unit; they compare only within their column.
